Results are given in words; binding and its absence hold for the method and conditions named.

Amino acid sequences for entries named in this document (tags omitted). A change or cut given only in a name is not applied to a line headed by its entry. Chains listed by the source or under a name are the forms on record and can include a tag or linker. Residues count along the entry.
UniProt Q8NBP7, residues 30-692: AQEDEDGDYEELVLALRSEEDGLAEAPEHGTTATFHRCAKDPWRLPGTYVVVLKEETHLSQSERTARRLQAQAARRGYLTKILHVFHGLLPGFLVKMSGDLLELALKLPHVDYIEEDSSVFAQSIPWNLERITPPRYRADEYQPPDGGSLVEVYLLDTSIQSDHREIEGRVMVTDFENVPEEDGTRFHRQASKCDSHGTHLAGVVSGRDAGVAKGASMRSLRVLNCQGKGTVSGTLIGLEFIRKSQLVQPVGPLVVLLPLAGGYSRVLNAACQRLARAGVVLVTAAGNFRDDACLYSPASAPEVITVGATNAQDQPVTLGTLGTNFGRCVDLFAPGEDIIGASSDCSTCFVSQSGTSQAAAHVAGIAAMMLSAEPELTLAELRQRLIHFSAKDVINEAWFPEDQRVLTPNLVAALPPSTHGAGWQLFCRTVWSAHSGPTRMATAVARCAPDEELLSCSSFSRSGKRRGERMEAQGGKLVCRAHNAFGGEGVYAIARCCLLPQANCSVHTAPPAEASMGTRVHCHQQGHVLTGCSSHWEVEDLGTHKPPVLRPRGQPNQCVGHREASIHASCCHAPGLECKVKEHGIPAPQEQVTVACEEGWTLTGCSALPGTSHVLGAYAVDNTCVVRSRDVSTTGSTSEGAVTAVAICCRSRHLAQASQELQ
small 25 aa AnxA2 peptide (residues 73–97) (P07355, residues 73-97): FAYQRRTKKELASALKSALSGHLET
intermediate length AnxA2 peptide (49–97) incorporating 4 alanine substitutions (77AATAA81) (P07355, form named): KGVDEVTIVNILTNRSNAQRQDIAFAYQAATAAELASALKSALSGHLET

For this assay, the target named is biotin-labeled human PCSK9 protein (residues 30–692) (human) (UniProt Q8NBP7). The experiment in a line: AlphaScreen or HTRF; competition: biotin-PCSK9 (15 nM) and His-LDLR ectodomain (15 nM) mixed with increasing AnxA2 peptide, 60 min at 20°C in 25 mM Hepes pH 7.4, 100 mM NaCl, 0.5 mM CaCl2, 0.1% BSA; streptavidin donor and nickel chelate acceptor beads, overnight at 20°C; both purified.

Regarding “intermediate length AnxA2 peptide (49–97) incorporating 4 alanine substitutions (77AATAA81) (from UniProt P07355 49-97)”, the binding entry is “no binding”.

“small 25 aa AnxA2 peptide (residues 73–97) (from UniProt P07355 73-97)”: the binding entry is “no binding”.

(Values after publication PMC3407131, “Annexin A2 Is a Natural Extrahepatic Inhibitor of the PCSK9-Induced LDL Receptor Degradation” (PLoS ONE, 2012).)
